## Library screening results

Data taken from ChEMBL document CHEMBL3988442, “University of Dundee, Small-Polar-MMV Screening Library” (2021).

A: 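Whole-cell assay for inhibitors of Mycobacterium tuberculosis growth, labelled Cornell in the record; the read-out is not stated. The concentration is filed as 10 mM, unlikely as a test dose, so the dose is not known. The record gives no direction; compounds strong in two other growth screens of this library score well above the rest, so higher reads as stronger inhibition. Of about 53,000 compounds tested this way, about 900 (1.7%) reached 50% or more in at least one test.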
B: 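Assay on Mycobacterium tuberculosis, filed only as a heat shock assay from Cornell; the read-out is not stated. The concentration is filed as 10 mM, unlikely as a test dose, so the dose is not known. The record gives no direction; compounds that gave an IC50 in retests scored well above the rest, so higher reads as stronger inhibition. Size under these conditions: about 69,000 compounds, about 930 of them at 50% or above in at least one test.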

Results are given as percent effect.
The record does not define 0% and 100%; most values in the screen are far below 50% and negative numbers occur (in some assays of this library far below -100).
Compounds were drawn at random from those tested, without regard to their results.
A dash means the value is not listed here; it may have been measured.

| SMILES | A | B |
|---|---|---|
| `CC(C)S(=O)(=O)NC(=O)CC(c1ccccc1)C(F)(F)F` (stereo not drawn) | 2.532 | 6.294 |
| `CCN1CCCC(C)(C(=O)NCc2nccn2Cc2ccccc2)C1` (stereo not drawn) | 18.66 | -9.913 |
| `COc1cc2cc3c(nc2cc1OC)OCCN(Cc1ccco1)C3` | 6.037 | -20.11 |
| `CN1CCN(c2ncccn2)CC12CCC(=O)N(CC1CC1)CC2` (stereo not drawn) | -1.489 | 2.843 |
| `Cc1ccsc1[C@@H]1CCN(C(=O)c2ccc(-c3cc[nH]n3)cc2)C[C@H]1O` | 15.77 | 14.86 |
| `COc1cccc(C(=O)N2CCCC2c2ncc3c(n2)CCN(C)C3)c1` (stereo not drawn) | - | -18.69 |
| `CC(NC(=O)Nc1ccc(F)c(F)c1)c1nc[nH]n1` (stereo not drawn) | - | 3.796 |
| `CCC(C(=O)NCCc1coc(-c2ccc(C)cc2)n1)N(C)C` (stereo not drawn) | -11.32 | 1.561 |
| `CC(C)CN1CCN(C)C(CCO)C1` (stereo not drawn) | 23.03 | 16.83 |
| `O=C(NCC(=O)N1CCCC1Cc1cccc(F)c1)C1CCCC1` (stereo not drawn) | - | -9.448 |
| `O=C(O)C(F)(F)F.O=C(O)C(F)(F)F.O=C(O)C(F)(F)F.c1ccc(CN2CCOC3(CCN(c4ncccn4)CC3)C2)nc1` | 4.86 | -26.32 |
| `CNS(=O)(=O)c1c(C)sc2ccccc12` | -11.53 | -6.641 |
| `CCC(=O)Nc1ccc(C(C)NC(=O)COC)cc1` (stereo not drawn) | -35.28 | -5.612 |
| `CC(C)OCCN1CCC(Nc2ncccn2)CC1` | -6.188 | 5.173 |
| `CC(C)c1ccc(CN2CCCC3(CC2)CN(C)C(=O)O3)cc1` (stereo not drawn) | - | 26.49 |
| `CC(C)c1cnc(CN(C)C2CCN(CCc3ccccn3)C2)o1` (stereo not drawn) | -58.83 | -13.05 |
| `Cc1cnn(CC2CCCN2C(=O)c2csc(C(C)C)n2)c1` (stereo not drawn) | - | -9.99 |
| `O=C(CCc1cc(Cl)no1)N1CCCCC1CCN1CCOCC1` (stereo not drawn) | -54.92 | -16.05 |
| `CC1CCCCN1S(=O)(=O)NCCN/C(O)=C1/N=CC=CC1=O` (stereo not drawn) | - | -30.82 |
| `Cc1ncc(CNc2ccc(C(=O)NCc3ccco3)cc2C)s1` | 10.85 | -7.859 |
| `CNc1ccc(CC2CCCN(C(=O)c3cccc(C)n3)C2)nn1` (stereo not drawn) | - | -9.445 |
| `CCOCC1CN(C(=O)c2ccncn2)Cc2cnn(CC)c21.O=C(O)C(F)(F)F` (stereo not drawn) | 19.83 | -14.39 |
| `CCCS(=O)(=O)N1CCC2(CC1)CC(Nc1ncccn1)CO2` (stereo not drawn) | 13.22 | -31.7 |
| `COc1ccc(-c2noc(C(=O)NCCN3CCCCC3)n2)cc1OC` | - | -8.83 |
| `Nc1ccnc(N2CCCC(CCc3ccccc3)(C(=O)O)C2)n1` (stereo not drawn) | 12.44 | -40.86 |
| `CC(=O)N1CCN(C(=O)CNc2cccc(OC(F)F)c2C)CC1` | -27.25 | 14.78 |
| `CCS(=O)(=O)N1CCC(OCCCc2ccccc2)C1` (stereo not drawn) | 35.16 | 25.36 |
| `CCC(=O)N1CCC(c2nc(N3CCCCC3)ncc2S(C)(=O)=O)CC1` | 49.28 | -4.292 |
| `O=C(O)C(F)(F)F.O=C(O)C(F)(F)F.[H][C@@]12COC[C@]1(CNC(=O)C1CCC1)CN(Cc1cccnc1)C2` | 3.194 | 24.22 |
| `Cc1ccc2oc(CN3CCn4nc(CCC(=O)O)cc4C3)c(C)c2c1` | 5.735 | -1.883 |
| `COc1ccnc(N(C)Cc2c(C)noc2C)n1` | 10.28 | -14.11 |
| `COc1cccc2[nH]cc(CCNC(=O)N3CCC[C@H]3CO)c12` | 12.51 | -5.385 |
| `CCC(=O)N1CCc2c(O)nc(C3CCCCN3C(=O)C3CC3)nc2C1` (stereo not drawn) | -11.08 | -16.27 |
| `Cc1nn(C)c2c(N(C)Cc3ccco3)nc(C3CC3)nc12` | -0.6481 | 35.7 |
| `Cc1cc(C)cc(N2CCN(C(=O)C3CN(C)C(=O)N3)CC2=O)c1` (stereo not drawn) | 3.831 | 17.16 |
| `CNC(=O)CCNC(=O)c1cc(Br)c2c(c1)OCCO2` | -8.039 | -4.486 |
| `COc1ccccc1CC(=O)N1CC[C@@]2(CCCO2)[C@@H](OC)C1` | - | -24.07 |
| `COc1cccc(-c2nc(C)c(C(=O)N[C@H](CO)CCSC)s2)c1` | 3.237 | 11.69 |
| `[H][C@]12CN(Cc3ccc(OC)cc3)C[C@@]1([H])S(=O)(=O)CC[C@@H]2C(=O)NC` | 8.395 | -2.189 |
| `[H][C@@]12CCN(C(=O)c3cccn3C)[C@@]1([H])CC(=O)N2CC1CCOCC1` | -4.86 | -5.508 |
| `Cc1nc2c(c(NC3CCN(Cc4cccnc4)CC3)n1)CCNCC2` | 11 | 1.678 |
| `CCSc1cc(C(=O)N(CC(F)F)C(C)C)ccn1` | -10.99 | -10.81 |
| `Cc1cc(-c2ccc(=O)n(CCNC(=O)C3CCCCC3)n2)c(C)o1` | 6.455 | -3.853 |
| `COc1cccc(CN2CCC3(CC2)CCN(C(=O)[C@@H]2CCCO2)C3)c1.O=C(O)C(F)(F)F` | 33.11 | -4.383 |
| `Cc1ccn2ncc(C(=O)N3CCCC(c4noc(C)n4)C3)c2n1` (stereo not drawn) | -14.28 | -26.01 |
| `O=C(NCC(=O)N1CCCCC1)c1ccc(Cl)cc1I` | - | -3.93 |
| `Cn1nc(Cn2ccnc2)c2c1CN(C(=O)c1ccc[nH]1)C2` | 23.46 | 8.589 |
| `CCOc1ccc(Cl)c(C(=O)N2CCCC(c3ccn[nH]3)C2)n1` (stereo not drawn) | 0.08703 | -18.75 |
| `Cc1cnc(C(=O)N2CCC3(CC2)CN(c2ccccn2)CCO3)cn1` | 12.02 | -36.59 |
| `Cc1nccn1Cc1nnc(C2CCCN(c3ncccc3F)C2)n1C` (stereo not drawn) | 13.01 | -9.762 |
| `Cc1nsc(N2CCN(CC(=O)N(C3CC3)C(C)C3CC3)CC2)n1` (stereo not drawn) | - | -17.35 |
| `CC(C)Nc1cccc(C(=O)NCC(O)c2cccc(F)c2)c1` (stereo not drawn) | - | 13.44 |
| `CC(C)N1CCC(C(=O)NC[C@H]2CCc3ccccc3O2)CC1` | - | 0.382 |
| `COCC(=O)N1CCC2(CC1)COCCN2CCN(C)C.O=C(O)C(F)(F)F.O=C(O)C(F)(F)F` | 9.379 | 9.117 |
| `COCCN1CCN(C(C)c2nc(C3CC3)no2)CC1` (stereo not drawn) | - | -8.272 |
| `O=C(c1ccc2c(c1)CCCC2)N1CCN(c2cnccn2)CC1` | - | 2.953 |
| `Cc1nn(C)c(Cl)c1CNCc1cccnc1N1CCN(C)CC1.Cl` | 6.153 | -22.17 |
| `CCc1nnc2n1CCN(C(=O)c1ccc3c(c1)NC(=O)CO3)C2` | -18.86 | 8.462 |